Results are given in words; binding and its absence hold for the method and conditions named. For part of these data: Binding seen in cells or lysates may run through a third protein. Some binding calls cover weakened binding; strength is not graded here.

Sequences of proteins named here, by UniProt entry; tags and fusion partners are left off.
UniProt P06493: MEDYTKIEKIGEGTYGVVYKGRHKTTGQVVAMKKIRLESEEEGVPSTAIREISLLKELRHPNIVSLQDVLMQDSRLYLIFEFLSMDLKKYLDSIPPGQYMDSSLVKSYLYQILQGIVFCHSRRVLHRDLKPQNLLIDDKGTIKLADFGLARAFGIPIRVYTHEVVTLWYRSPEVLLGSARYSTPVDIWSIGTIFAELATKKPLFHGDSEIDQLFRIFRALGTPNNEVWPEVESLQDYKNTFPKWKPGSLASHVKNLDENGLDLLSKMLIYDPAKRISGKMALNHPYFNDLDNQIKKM
UniProt Q14676: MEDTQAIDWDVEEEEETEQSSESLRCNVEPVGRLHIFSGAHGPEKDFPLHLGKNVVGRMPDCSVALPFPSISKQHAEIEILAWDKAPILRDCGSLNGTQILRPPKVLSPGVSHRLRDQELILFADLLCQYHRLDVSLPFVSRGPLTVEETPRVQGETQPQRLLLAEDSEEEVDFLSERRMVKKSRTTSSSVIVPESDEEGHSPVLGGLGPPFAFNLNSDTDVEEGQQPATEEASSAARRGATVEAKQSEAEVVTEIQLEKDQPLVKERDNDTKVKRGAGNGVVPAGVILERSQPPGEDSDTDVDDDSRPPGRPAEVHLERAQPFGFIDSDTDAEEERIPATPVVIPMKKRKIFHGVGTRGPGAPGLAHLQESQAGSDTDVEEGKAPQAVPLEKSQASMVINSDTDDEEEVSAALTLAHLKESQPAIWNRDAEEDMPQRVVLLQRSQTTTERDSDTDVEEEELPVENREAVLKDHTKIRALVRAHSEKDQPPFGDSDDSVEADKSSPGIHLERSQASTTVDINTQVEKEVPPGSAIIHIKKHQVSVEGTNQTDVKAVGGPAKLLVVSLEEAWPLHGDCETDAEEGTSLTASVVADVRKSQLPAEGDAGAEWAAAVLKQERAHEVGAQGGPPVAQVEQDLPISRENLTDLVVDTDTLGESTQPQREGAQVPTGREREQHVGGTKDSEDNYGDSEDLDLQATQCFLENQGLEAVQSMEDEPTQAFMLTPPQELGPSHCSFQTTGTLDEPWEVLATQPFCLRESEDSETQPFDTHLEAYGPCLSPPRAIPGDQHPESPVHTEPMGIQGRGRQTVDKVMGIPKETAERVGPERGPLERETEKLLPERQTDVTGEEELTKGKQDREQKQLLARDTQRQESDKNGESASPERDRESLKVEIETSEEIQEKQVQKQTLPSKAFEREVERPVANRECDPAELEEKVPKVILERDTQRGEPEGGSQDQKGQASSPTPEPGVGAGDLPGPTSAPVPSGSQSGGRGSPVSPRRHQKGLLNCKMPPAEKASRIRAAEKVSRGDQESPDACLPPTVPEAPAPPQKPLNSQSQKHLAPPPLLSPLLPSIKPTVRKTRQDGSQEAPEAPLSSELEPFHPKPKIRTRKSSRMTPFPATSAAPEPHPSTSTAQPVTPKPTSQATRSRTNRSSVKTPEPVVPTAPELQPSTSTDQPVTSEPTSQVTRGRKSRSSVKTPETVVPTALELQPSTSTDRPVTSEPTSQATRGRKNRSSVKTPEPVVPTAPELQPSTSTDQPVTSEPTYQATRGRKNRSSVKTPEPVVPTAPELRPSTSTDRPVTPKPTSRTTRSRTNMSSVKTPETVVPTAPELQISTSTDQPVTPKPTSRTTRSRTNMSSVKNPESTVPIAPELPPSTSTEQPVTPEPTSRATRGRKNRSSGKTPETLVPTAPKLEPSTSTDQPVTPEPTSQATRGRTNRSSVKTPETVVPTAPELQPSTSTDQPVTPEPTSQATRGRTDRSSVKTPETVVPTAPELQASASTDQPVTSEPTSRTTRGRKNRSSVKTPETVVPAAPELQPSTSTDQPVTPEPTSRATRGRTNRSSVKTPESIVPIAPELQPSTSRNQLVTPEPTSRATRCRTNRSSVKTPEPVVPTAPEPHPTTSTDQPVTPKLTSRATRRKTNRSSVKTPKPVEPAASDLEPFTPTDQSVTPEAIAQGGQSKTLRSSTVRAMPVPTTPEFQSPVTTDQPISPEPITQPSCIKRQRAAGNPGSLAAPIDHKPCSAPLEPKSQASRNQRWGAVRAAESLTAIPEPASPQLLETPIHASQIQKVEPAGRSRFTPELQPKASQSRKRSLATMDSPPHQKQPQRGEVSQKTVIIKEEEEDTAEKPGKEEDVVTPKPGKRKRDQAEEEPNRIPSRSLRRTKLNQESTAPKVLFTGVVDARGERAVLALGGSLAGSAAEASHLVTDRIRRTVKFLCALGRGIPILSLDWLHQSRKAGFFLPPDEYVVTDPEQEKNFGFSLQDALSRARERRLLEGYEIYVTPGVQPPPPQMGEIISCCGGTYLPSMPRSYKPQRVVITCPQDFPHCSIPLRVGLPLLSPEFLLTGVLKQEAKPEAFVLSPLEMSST
UniProt Q8N884: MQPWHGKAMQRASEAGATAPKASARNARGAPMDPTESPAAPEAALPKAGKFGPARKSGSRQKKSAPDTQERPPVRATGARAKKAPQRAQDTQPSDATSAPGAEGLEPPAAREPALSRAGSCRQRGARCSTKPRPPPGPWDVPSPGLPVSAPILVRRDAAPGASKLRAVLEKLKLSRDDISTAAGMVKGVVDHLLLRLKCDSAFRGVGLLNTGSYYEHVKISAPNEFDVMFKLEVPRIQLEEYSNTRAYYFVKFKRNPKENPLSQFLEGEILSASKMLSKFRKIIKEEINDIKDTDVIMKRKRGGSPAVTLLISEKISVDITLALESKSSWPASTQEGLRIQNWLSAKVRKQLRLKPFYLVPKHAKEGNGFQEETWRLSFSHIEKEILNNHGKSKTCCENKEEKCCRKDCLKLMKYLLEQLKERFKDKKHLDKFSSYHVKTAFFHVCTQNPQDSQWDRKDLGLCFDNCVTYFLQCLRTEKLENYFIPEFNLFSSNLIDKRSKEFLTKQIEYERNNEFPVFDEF

We go through three molecules from publication PMC8776970.

Assay [1] addresses mCherry-CDK1 (UniProt P06493). Kind of assay: pull-down; purified GFP-cGAS incubated with purified mCherry-CDK1 and mCherry-beads in RIPA buffer (1% NP-40, 0.25% sodium deoxycholate, 50 mmol/L Tris-HCl pH 7.4, 150 mmol/L NaCl) overnight at 4 °C; immunoblot with anti-GFP and anti-mCherry; both purified.
Assay [2] deals with CDK1, endogenous (human (endogenous in U2OS, HeLa, 293T)) (UniProt P06493). Kind of assay: co-IP; endogenous CDK1 precipitated with CDK1 antibody and Protein A/G beads from mitotic U2OS lysate; RIPA buffer; IgG as control.
The target is the same in assay [3]. The experiment in a line: co-IP; HeLa cell lysate (Fig. S5B); RIPA buffer, primary antibody and Protein A/G beads.
The target in assay [4] is exogenously expressed CDK1 (UniProt P06493). Kind of assay: co-IP; exogenously expressed CDK1 precipitated from mitotic U2OS cells (Fig. S5A).
Assay [5] has as its target GFP-MDC1 (UniProt Q14676). The experiment in a line: co-IP; GFP-MDC1 precipitated with GFP-beads from mitotic cGAS-deficient (gcGAS-1) U2OS cells cultured with SCR7; RIPA buffer; RNF8 by immunoblot. Background: A western blot detects proteins with antibodies after separation by electrophoresis.
Assay [6] addresses GFP-MDC1 (UniProt Q14676). Kind of assay: condition: only mitotic control (Scr) U2OS cells in which cGAS is not depleted; co-IP; GFP-MDC1 precipitated with GFP-beads from mitotic control (Scr) U2OS cells cultured with SCR7; RIPA buffer; RNF8 by immunoblot.

Regarding “GFP-cGAS protein (purified) (from UniProt Q8N884 1-522)”, the binding entry in assay [1] is given as “binds”.

Turning to “cyclic GMP-AMP synthase (cGAS), endogenous (from UniProt Q8N884 1-522)”, the binding entry in assay [2], in assay [3] and in assay [4] was “binds” in each case.

B1: RNF8 (protein, UniProt O76064 1-485)
chain: MGEPGFFVTGDRAGGRSWCLRRVGMSAGWLLLEDGCEVTVGRGFGVTYQLVSKICPLMISRNHCVLKQNPEGQWTIMDNKSLNGVWLNRARLEPLRVYSIHQGDYIQLGVPLENKENAEYEYEVTEEDWETIYPCLSPKNDQMIEKNKELRTKRKFSLDELAGPGAEGPSNLKSKINKVSCESGQPVKSQGKGEVASTPSDNLDPKLTALEPSKTTGAPIYPGFPKVTEVHHEQKASNSSASQRSLQMFKVTMSRILRLKIQMQEKHEAVMNVKKQTQKGNSKKVVQMEQELQDLQSQLCAEQAQQQARVEQLEKTFQEEEQHLQGLEIAQGEKDLKQQLAQALQEHWALMEELNRSKKDFEAIIQAKNKELEQTKEEKEKMQAQKEEVLSHMNDVLENELQCIICSEYFIEAVTLNCAHSFCSYCINEWMKRKIECPICRKDIKSKTYSLVLDNCINKMVNNLSSEVKERRIVLIRERKAKRLF
For the molecule B1, the binding result in assay [5] was “binds”; in assay [6], “no binding”.
